In the supplement of paper PMC10849652:
Some of the results follow.

The chains behind the UniProt entries cited, without tags or fusion partners. Where a name states a change or a piece, a line headed by the entry shows the natural chain unless it says otherwise.
UniProt Q96D31, whole entry, looked up: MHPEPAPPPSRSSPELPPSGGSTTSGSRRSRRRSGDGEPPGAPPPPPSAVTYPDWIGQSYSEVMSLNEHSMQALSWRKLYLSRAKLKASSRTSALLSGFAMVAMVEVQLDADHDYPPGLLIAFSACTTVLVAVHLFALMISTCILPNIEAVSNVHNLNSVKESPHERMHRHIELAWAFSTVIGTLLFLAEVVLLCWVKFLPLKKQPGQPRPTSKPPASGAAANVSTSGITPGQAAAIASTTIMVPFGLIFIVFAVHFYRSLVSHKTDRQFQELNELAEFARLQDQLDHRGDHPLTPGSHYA
UniProt P35658: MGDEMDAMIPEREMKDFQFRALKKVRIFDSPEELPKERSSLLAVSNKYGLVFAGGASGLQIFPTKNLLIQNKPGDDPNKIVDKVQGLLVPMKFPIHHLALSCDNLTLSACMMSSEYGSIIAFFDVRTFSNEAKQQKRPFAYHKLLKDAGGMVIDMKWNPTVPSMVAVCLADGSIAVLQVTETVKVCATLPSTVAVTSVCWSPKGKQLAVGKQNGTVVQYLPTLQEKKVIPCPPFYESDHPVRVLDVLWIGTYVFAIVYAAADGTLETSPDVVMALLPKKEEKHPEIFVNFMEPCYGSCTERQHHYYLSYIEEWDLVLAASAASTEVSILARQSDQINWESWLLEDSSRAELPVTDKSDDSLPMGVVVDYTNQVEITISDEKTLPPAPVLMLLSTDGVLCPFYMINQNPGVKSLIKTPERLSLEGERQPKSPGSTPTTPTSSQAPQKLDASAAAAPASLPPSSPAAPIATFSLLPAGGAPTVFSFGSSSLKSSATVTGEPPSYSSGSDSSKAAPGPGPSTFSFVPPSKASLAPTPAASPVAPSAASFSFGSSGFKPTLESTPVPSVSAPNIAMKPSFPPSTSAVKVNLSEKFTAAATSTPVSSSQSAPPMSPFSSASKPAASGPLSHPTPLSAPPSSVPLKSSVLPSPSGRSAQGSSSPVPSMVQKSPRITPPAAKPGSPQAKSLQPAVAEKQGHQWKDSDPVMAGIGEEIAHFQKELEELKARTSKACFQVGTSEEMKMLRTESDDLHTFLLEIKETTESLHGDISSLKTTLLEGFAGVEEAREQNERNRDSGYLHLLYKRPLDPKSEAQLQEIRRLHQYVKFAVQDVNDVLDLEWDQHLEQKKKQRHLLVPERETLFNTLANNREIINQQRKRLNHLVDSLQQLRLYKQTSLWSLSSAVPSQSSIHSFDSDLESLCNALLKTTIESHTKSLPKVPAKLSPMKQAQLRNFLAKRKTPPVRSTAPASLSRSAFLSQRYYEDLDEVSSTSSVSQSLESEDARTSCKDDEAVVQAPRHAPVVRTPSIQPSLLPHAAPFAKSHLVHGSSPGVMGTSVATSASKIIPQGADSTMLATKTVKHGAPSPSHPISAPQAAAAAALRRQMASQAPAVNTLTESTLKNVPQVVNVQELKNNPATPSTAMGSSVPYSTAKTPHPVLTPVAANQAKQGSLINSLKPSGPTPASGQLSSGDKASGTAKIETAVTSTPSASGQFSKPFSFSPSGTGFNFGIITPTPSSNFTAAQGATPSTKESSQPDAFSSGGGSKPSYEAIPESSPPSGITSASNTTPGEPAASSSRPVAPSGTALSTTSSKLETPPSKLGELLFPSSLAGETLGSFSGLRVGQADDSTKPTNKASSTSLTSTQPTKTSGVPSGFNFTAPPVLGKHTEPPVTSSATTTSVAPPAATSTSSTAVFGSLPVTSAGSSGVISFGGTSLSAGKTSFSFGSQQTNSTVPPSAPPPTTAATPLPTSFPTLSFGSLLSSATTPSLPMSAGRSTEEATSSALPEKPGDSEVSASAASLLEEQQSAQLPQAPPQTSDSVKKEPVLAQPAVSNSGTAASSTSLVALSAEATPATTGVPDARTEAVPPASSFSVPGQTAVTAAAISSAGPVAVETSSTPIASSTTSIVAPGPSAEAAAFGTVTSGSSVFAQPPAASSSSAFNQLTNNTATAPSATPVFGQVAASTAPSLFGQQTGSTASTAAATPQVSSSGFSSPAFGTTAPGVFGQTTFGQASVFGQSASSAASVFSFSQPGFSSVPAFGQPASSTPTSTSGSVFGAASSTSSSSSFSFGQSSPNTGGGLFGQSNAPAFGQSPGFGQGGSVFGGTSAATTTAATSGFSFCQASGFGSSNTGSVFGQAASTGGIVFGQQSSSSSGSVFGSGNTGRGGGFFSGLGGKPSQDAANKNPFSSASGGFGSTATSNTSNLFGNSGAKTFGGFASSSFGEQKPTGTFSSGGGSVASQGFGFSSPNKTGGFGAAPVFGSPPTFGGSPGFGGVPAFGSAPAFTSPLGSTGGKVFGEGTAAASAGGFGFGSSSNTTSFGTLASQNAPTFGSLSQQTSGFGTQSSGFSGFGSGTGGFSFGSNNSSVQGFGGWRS
UniProt Q02218: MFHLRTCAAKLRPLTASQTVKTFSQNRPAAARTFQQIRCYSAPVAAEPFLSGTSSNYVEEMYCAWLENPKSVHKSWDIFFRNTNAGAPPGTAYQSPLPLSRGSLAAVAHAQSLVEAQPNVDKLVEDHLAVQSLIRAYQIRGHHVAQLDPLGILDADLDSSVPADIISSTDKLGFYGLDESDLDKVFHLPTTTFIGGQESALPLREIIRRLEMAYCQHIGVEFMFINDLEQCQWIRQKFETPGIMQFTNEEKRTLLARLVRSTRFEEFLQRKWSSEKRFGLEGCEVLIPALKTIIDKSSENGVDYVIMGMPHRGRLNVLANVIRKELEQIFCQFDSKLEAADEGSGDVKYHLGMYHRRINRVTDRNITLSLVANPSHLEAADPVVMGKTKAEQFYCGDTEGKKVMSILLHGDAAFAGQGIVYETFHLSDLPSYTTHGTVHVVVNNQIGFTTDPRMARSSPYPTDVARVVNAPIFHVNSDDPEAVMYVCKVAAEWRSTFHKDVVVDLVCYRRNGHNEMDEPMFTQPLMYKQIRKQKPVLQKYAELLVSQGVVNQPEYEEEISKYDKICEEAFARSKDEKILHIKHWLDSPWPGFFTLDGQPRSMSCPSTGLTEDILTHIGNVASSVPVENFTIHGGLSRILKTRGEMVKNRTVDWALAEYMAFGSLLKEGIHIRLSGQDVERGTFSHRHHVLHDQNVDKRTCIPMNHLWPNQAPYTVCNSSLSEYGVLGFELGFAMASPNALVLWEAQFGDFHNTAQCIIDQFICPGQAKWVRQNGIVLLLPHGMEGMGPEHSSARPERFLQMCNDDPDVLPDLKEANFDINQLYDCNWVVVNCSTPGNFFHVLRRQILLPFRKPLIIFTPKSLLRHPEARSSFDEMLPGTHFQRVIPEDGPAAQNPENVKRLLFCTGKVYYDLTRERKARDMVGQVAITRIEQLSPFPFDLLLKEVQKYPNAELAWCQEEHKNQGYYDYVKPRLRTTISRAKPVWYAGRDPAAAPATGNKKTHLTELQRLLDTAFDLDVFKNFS
UniProt P04181: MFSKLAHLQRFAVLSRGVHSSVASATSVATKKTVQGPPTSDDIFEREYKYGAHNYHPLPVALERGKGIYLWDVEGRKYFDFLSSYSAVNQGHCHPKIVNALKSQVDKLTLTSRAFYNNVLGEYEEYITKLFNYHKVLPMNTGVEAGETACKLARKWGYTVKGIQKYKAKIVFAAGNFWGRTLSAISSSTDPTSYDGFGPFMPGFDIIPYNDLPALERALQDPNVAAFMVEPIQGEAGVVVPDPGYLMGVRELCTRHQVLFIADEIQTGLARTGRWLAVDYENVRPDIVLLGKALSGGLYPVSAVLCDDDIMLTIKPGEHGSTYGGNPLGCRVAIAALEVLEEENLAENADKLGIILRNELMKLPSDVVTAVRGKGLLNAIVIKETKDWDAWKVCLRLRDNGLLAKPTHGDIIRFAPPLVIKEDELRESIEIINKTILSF
UniProt Q8NFH5: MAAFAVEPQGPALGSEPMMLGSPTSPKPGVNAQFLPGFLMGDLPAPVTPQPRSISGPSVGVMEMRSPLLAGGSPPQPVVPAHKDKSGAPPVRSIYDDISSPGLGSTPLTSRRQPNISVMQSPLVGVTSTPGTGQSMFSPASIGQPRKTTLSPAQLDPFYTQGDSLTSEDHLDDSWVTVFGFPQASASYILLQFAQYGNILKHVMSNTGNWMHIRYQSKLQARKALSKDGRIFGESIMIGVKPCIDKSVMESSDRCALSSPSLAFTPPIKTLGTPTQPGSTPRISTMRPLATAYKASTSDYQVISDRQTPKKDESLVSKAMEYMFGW
UniProt Q99571: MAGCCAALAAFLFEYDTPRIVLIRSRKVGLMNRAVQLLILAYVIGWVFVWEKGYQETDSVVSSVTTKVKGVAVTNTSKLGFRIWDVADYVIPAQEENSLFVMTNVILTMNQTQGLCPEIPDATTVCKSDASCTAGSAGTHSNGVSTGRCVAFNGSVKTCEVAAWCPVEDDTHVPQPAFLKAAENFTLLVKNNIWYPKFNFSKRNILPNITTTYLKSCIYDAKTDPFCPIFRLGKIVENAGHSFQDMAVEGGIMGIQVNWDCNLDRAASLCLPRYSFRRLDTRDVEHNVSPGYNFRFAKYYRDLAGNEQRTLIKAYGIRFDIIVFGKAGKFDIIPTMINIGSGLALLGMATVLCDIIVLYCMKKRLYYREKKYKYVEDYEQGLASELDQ
UniProt Q9H813: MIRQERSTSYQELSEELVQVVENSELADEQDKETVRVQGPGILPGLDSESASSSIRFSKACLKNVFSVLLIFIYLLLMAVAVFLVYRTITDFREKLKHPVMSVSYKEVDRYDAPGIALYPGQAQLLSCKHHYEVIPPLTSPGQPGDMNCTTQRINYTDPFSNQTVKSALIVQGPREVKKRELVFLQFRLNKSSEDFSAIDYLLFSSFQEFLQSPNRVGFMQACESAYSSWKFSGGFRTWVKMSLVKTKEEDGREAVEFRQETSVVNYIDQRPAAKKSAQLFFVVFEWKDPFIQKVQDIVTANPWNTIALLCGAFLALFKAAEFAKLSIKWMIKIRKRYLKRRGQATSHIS
UniProt Q32P28: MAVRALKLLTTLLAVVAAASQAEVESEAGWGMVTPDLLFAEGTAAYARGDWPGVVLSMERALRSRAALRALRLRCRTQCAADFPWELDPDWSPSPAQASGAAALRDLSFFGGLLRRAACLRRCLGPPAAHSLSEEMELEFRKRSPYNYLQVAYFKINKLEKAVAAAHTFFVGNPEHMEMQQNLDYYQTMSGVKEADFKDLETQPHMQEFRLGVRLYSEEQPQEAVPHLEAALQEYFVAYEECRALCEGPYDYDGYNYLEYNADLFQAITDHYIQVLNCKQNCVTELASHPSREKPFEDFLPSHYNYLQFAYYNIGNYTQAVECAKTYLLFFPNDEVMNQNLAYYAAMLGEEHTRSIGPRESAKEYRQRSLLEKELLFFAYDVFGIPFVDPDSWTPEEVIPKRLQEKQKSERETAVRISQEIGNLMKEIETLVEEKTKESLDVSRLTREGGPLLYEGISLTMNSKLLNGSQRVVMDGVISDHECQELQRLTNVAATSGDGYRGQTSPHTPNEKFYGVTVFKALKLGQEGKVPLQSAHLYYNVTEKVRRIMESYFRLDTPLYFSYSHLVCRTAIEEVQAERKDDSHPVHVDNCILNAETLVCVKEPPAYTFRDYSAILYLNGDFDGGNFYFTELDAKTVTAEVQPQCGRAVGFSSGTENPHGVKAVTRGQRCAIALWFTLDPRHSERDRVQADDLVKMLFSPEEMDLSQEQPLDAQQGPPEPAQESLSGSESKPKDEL
UniProt Q9UKK6: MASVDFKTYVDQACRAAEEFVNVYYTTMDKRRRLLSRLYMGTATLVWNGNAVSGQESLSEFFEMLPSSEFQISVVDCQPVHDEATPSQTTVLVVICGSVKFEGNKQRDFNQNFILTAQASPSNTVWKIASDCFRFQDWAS
UniProt Q15102: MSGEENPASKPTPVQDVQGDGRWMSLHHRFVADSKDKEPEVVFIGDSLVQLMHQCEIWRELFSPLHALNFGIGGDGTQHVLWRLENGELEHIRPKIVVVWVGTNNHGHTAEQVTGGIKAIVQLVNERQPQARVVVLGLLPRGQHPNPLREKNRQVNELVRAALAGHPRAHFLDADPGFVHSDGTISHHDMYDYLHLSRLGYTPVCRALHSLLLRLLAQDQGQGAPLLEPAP
UniProt O15460: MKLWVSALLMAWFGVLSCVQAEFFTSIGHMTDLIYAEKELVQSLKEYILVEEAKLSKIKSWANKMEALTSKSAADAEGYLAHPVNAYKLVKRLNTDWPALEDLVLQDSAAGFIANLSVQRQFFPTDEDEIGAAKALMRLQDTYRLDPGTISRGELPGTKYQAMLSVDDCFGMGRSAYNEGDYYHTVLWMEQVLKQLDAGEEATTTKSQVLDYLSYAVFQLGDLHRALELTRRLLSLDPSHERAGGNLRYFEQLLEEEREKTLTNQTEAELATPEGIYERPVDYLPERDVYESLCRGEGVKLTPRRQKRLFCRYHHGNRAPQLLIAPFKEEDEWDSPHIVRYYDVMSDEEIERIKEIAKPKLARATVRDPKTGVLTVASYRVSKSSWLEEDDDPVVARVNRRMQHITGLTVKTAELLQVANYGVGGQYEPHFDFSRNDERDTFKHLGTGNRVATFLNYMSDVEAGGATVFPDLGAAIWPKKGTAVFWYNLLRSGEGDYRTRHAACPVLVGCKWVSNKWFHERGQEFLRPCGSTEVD

How the values were obtained:
Assay in all cases: log2 fold change, soluble protein after heating vs DMSO (PISA); higher = thermal stabilisation; K562 lysate, 10 uM; active = over 0.2 and 3.5 SD of the protein, either way, in both replicates (recomputed)
[1] = compound: CS(=O)(=O)CCNCc1ccc(-c2ccc3ncnc(Nc4ccc(OCc5cccc(F)c5)c(Cl)c4)c3c2)o1 [lapatinib]
Procedure, shortened: (§1)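 The values are log-two fold changes in thermal stability compared with solvent controls and come from duplicates. They were obtained by TMTpro 16plex LC-MS/MS, with channel sums equalised, on the supernatant after 21,000xg for 90 min. That supernatant came from crude K562 extract at 1 mg/mL protein treated with 10 μM compound for 30 min, heated for 3 min across 48°C-58°C, pooled and brought to 0.5% NP-40 at 4°C.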

[2] = compound: CS(=O)(=O)N1CCN(Cc2cc3nc(-c4cccc5[nH]ncc45)nc(N4CCOCC4)c3s2)CC1 [pictilisib]
Procedure, shortened: as §1

[3] = compound: C[C@@H](Oc1cc(-c2cnn(C3CCNCC3)c2)cnc1N)c1c(Cl)ccc(F)c1Cl [crizotinib]
Procedure, shortened: as §1

[4] = compound: C[C@H](C1=CC=C(C=C1)C(=O)NC2=C3C=CNC3=NC=C2)N
Procedure, shortened: as §1

[5] = compound: C[C@H](Nc1ncnc2nc[nH]c12)c1cc2cccc(Cl)c2c(=O)n1-c1ccccc1 [duvelisib]
Procedure, shortened: as §1

[6] = compound: Cc1cc(Nc2cc(CN3CCOCC3)c3nc(C)c(Cc4ccc(Cl)cc4F)n3n2)n[nH]1 [gandotinib]
Procedure, shortened: as §1

[7] = compound: Cc1ccc(-n2nc(C(C)(C)C)cc2NC(=O)Nc2ccc(OCCN3CCOCC3)c3ccccc23)cc1 [doramapimod]
Procedure, shortened: as §1

[8] = compound: Cc1ccc(NC(=O)c2ccc(CN3CC[C@H](N(C)C)C3)c(C(F)(F)F)c2)cc1Nc1nccc(-c2cncnc2)n1 [bafetinib]
Procedure, shortened: as §1

[9] = compound: Cc1cccc(CC(=O)N2CCc3c2ccc(-c2cn(C)c4ncnc(N)c24)c3F)n1
Procedure, shortened: as §1

[10] = compound: Cc1cn(-c2cc(NC(=O)c3ccc(C)c(Nc4nccc(-c5cccnc5)n4)c3)cc(C(F)(F)F)c2)cn1 [nilotinib]
Procedure, shortened: as §1

[11] = compound: Cc1nc(Nc2n[nH]c3c2CN(C(=O)N[C@H](CN(C)C)c2ccccc2)C3(C)C)c2sccc2n1
Procedure, shortened: as §1

[12] = compound: Cc1nc(Nc2ncc(C(=O)Nc3c(C)cccc3Cl)s2)cc(N2CCN(CCO)CC2)n1 [dasatinib]
Procedure, shortened: as §1

[13] = compound: Cc1ncc(-c2ccnc(Nc3ccc(S(C)(=O)=O)cc3)n2)n1C(C)C
Procedure, shortened: as §1

[14] = compound: Cn1cc(-c2ccc3c(c2)CCN3C(=O)Cc2cccc(C(F)(F)F)c2)c2c(N)ncnc21
Procedure, shortened: as §1

[15] = compound: Cn1cc(CNCC2CCN(c3ncc(C(=O)NO)cn3)CC2)c2ccccc21 [quisinostat]
Procedure, shortened: as §1

[16] = compound: Cn1cncc1[C@@](N)(c1ccc(Cl)cc1)c1ccc2c(c1)c(-c1cccc(Cl)c1)cc(=O)n2C [tipifarnib]
Procedure, shortened: as §1

[17] = compound: NC(=O)Nc1cc(-c2cccc(F)c2)sc1C(=O)N[C@H]1CCCNC1
Procedure, shortened: as §1

[18] = compound: NC(=O)c1cnc(N[C@@H]2CCCC[C@@H]2N)nc1Nc1cccc(-n2nccn2)c1
Procedure, shortened: as §1

[19] = compound: NC1(c2ccc(-c3nc4ccn5c(=O)[nH]nc5c4cc3-c3ccccc3)cc2)CCC1
Procedure, shortened: as §1

[20] = compound: Cc1cc(Nc2cc(N3CCN(C)CC3)nc(Sc3ccc(NC(=O)C4CC4)cc3)n2)n[nH]1 [tozasertib]
Procedure, shortened: as §1

Target	log2 fold change [1]	log2 fold change [2]	log2 fold change [3]	log2 fold change [4]	log2 fold change [5]	log2 fold change [6]	log2 fold change [7]	log2 fold change [8]	log2 fold change [9]	log2 fold change [10]	log2 fold change [11]	log2 fold change [12]	log2 fold change [13]	log2 fold change [14]	log2 fold change [15]	log2 fold change [16]	log2 fold change [17]	log2 fold change [18]	log2 fold change [19]	log2 fold change [20]
OSBPL1A (UniProt Q9BXW6)	inactive: -0.035	inactive: -0.051	inactive: -0.014	inactive: -0.079	inactive: 0.072	inactive: 0.069	inactive: 0.019	inactive: -0.077	inactive: 0.102	inactive: -0.07	inactive: -0.02	inactive: -0.044	inactive: -0.051	inactive: -0.027	inactive: -0.147	inactive: 0.015	inactive: 0	inactive: -0.024	active: -0.388	–
ORAI1 (UniProt Q96D31)	inactive: -0.035	inactive: -0.088	inactive: -0.081	inactive: 0	–	inactive: 0.115	inactive: -0.044	inactive: -0.205	inactive: 0.105	inactive: 0.059	inactive: 0.034	–	inactive: -0.042	–	inactive: 0.027	inactive: 0.012	inactive: -0.002	inactive: -0.091	inactive: -0.016	inactive: 0.085
NUP214 isoform 4 (UniProt P35658)	inactive: 0.068	inactive: -0.007	–	inactive: 0.026	–	inactive: -0.004	–	inactive: -0.058	inactive: 0.034	inactive: 0.039	inactive: -0.131	–	inactive: 0.027	–	–	inactive: -0.221	–	inactive: -0.096	inactive: 0.201	–
OGDH (UniProt Q02218)	inactive: 0.01	inactive: -0.006	inactive: -0.022	inactive: -0.05	inactive: -0.01	inactive: -0.073	inactive: 0.005	inactive: -0.042	inactive: 0.052	inactive: -0.023	inactive: 0.009	inactive: -0.051	inactive: 0.013	inactive: 0.029	inactive: 0.002	inactive: 0.014	inactive: 0.029	inactive: -0.001	inactive: -0.05	inactive: -0.005
OAT (UniProt P04181)	inactive: -0.02	inactive: 0.021	inactive: -0.034	inactive: -0.066	inactive: -0.025	inactive: 0.063	inactive: -0.029	inactive: 0	inactive: 0.044	inactive: 0.012	inactive: -0.038	inactive: -0.033	inactive: 0.003	inactive: -0.012	inactive: -0.002	inactive: 0.024	inactive: -0.01	inactive: 0.019	inactive: -0.018	inactive: 0.01
NUP35 (UniProt Q8NFH5)	inactive: 0.025	inactive: 0.046	inactive: -0.034	inactive: 0.044	–	inactive: 0	inactive: 0.104	inactive: 0.071	inactive: -0.111	inactive: 0.029	inactive: 0.015	–	inactive: 0.19	–	inactive: -0.042	inactive: 0.006	inactive: 0.005	inactive: -0.16	–	inactive: -0.016
P2RX4 isoform 2 (UniProt Q99571)	inactive: 0.038	inactive: -0.013	inactive: -0.187	inactive: -0.26	inactive: -0.034	inactive: 0.037	inactive: 0.102	inactive: -0.027	inactive: 0.312	–	–	inactive: -0.112	–	inactive: -0.107	inactive: -0.328	–	inactive: -0.02	inactive: 0.082	inactive: -0.042	inactive: 0.059
PACC1 (UniProt Q9H813)	inactive: 0.033	inactive: -0.144	inactive: -0.001	inactive: -0.084	inactive: -0.148	inactive: 0.009	inactive: -0.103	inactive: 0.304	inactive: -0.037	inactive: -0.02	inactive: -0.108	inactive: 0.219	inactive: 0.086	inactive: -0.047	inactive: -0.045	inactive: 0.049	inactive: 0.005	inactive: 0.084	inactive: 0.023	inactive: 0.021
NUP160 (UniProt Q12769)	inactive: 0.004	inactive: -0.046	inactive: -0.028	inactive: 0.003	inactive: -0.007	inactive: -0.102	inactive: 0.032	inactive: -0.059	inactive: -0.007	inactive: 0.014	inactive: -0.025	inactive: -0.092	inactive: -0.032	inactive: 0.021	inactive: -0.032	inactive: -0.031	inactive: 0.009	inactive: 0.002	inactive: -0.018	inactive: 0.015
NXPE1 (UniProt F5H0Y6)	inactive: -0.131	inactive: -0.12	–	–	–	–	–	inactive: -0.21	–	–	–	–	–	–	–	–	–	inactive: 0.05	–	–
PAK2 (UniProt Q13177)	inactive: -0.005	inactive: 0.005	inactive: 0.054	inactive: 0.03	inactive: 0.003	inactive: -0.02	inactive: -0.025	inactive: 0.035	inactive: -0.071	inactive: -0.011	inactive: 0.031	inactive: 0.023	inactive: 0.006	inactive: 0.002	inactive: 0.008	inactive: 0.031	inactive: -0.015	inactive: -0.017	inactive: 0.029	inactive: -0.03
P3H1 (UniProt Q32P28)	inactive: -0.007	inactive: -0.027	inactive: 0	inactive: 0.005	inactive: -0.017	inactive: -0.006	inactive: -0.019	inactive: -0.006	inactive: 0.024	inactive: 0.016	inactive: 0.006	inactive: 0.013	inactive: -0.001	inactive: -0.005	inactive: 0.029	inactive: -0.028	inactive: 0.002	inactive: -0.006	inactive: -0.001	inactive: 0.021
NXT1 (UniProt Q9UKK6)	inactive: -0.036	inactive: -0.071	–	inactive: -0.075	–	inactive: 0.16	–	inactive: -0.368	inactive: 0.232	inactive: 0.053	inactive: -0.163	–	inactive: -0.058	–	–	inactive: -0.092	–	inactive: 0.063	inactive: 0.084	–
PAFAH1B3 (UniProt Q15102)	inactive: -0.034	inactive: -0.024	inactive: -0.01	inactive: -0.016	inactive: -0.024	inactive: -0.001	inactive: 0	inactive: 0.048	inactive: -0.001	inactive: 0.005	inactive: 0.036	inactive: -0.057	inactive: -0.026	inactive: 0.03	inactive: 0.01	inactive: -0.01	inactive: -0.009	inactive: 0.031	inactive: 0.021	inactive: 0.054
P4HA2 (UniProt O15460)	inactive: 0.013	inactive: 0.029	inactive: -0.014	inactive: 0.045	inactive: -0.015	inactive: -0.027	inactive: -0.035	inactive: -0.014	inactive: 0.026	–	–	inactive: 0.034	–	inactive: 0.023	inactive: -0.032	–	inactive: 0.027	inactive: 0.058	inactive: 0.006	inactive: 0.009

Full records as entered above. Values in the order: log2 fold change [1] | log2 fold change [2] | log2 fold change [3] | log2 fold change [4] | log2 fold change [5] | log2 fold change [6] | log2 fold change [7] | log2 fold change [8] | log2 fold change [9] | log2 fold change [10] | log2 fold change [11] | log2 fold change [12] | log2 fold change [13] | log2 fold change [14] | log2 fold change [15] | log2 fold change [16] | log2 fold change [17] | log2 fold change [18] | log2 fold change [19] | log2 fold change [20]
PAFAH1B3 (UniProt Q15102) as listed: inactive: -0.034 | inactive: -0.024 | inactive: -0.01 | inactive: -0.016 | inactive: -0.024 | inactive: -0.001 | inactive: 0 | inactive: 0.048 | inactive: -0.001 | inactive: 0.005 | inactive: 0.036 | inactive: -0.057 | inactive: -0.026 | inactive: 0.03 | inactive: 0.01 | inactive: -0.01 | inactive: -0.009 | inactive: 0.031 | inactive: 0.021 | inactive: 0.054
ORAI1 (UniProt Q96D31) as listed: inactive: -0.035 | inactive: -0.088 | inactive: -0.081 | inactive: 0 | – | inactive: 0.115 | inactive: -0.044 | inactive: -0.205 | inactive: 0.105 | inactive: 0.059 | inactive: 0.034 | – | inactive: -0.042 | – | inactive: 0.027 | inactive: 0.012 | inactive: -0.002 | inactive: -0.091 | inactive: -0.016 | inactive: 0.085
